The match of structure and compound is tentative.
Columns and labels:
MV4-11 cells = test: Apoptosis induction shown by cleaved caspase-3 (westernblot)
kinases = test: In vitro kinase binding, KINOMEscan platform (DiscoverRx); conditions: 1 μM, competition assay
[1] = test system: FLT-3 and pSTAT5 in MV4-11 xenograft tumours; test: In vivo MV4-11 xenograft model, tumour westernblot; conditions: once a day at 30 or 100 mg/kg for 3 days
[2] = Pharmacokinetic profile in mice; conditions: dosed intravenously or intraperitoneally
FLT-3 = FLT-3 (Homo sapiens, UniProt P36888, INS600HVDFREYEYD); test: Cellular assay of target protein degradation (MV-4-11 cells, westernblot); format: cell-based; conditions: read-out: DC50 [cell line]; Table 3; MV4-11, FLT-3 degradation, 24 hours

By UniProt entry, the sequences of proteins in these tests, tags left out. Chains listed by the source or under a name are the forms on record and can include a tag or linker.
UniProt P36888, with tags, fused parts or gaps with the stated changes limits assumed: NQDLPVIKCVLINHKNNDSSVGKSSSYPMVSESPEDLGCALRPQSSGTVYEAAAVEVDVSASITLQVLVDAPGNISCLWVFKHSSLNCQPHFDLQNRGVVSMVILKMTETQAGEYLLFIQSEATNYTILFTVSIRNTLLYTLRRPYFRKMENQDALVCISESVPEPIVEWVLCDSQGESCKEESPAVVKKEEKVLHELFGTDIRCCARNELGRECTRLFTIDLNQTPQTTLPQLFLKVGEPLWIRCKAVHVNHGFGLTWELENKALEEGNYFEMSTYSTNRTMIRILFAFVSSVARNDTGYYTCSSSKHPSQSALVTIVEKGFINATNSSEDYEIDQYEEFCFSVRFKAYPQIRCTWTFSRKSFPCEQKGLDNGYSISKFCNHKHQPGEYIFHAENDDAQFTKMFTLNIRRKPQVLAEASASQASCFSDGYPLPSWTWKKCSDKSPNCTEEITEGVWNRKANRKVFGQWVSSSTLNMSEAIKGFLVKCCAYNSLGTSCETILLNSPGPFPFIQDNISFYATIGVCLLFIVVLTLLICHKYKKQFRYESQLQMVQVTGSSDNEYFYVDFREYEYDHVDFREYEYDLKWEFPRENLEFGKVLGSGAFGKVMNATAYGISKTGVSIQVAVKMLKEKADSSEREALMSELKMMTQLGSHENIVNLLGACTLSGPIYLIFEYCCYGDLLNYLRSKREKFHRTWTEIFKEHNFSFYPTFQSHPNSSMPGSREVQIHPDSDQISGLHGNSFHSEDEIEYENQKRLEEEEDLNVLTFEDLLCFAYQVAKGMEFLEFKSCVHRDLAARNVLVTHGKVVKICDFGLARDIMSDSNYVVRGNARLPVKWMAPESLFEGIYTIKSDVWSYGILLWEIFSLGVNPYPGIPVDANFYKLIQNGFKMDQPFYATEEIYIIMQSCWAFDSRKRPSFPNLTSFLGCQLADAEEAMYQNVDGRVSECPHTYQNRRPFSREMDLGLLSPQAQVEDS

With `Cc1ncsc1-c1ccc(CNC(=O)C2CC(O)CN2C(=O)C(NC(=O)CCOCCOCCOc2ccc3c(c2)sc2nc(-c4ccc(NC(=O)Nc5cc(C(C)(C)C)on5)cc4)cn23)C(C)(C)C)cc1` (stereo not drawn) as the compound, how does the “Induction of apoptosis (cleaved caspase-3, FIG. 3A/3B)” value (MV4-11 cells) read?
Its value is “ability to induce apoptosis”.

What about the “Kinase selectivity (KINOMEscan Dendrogram, FIG. 6)” value (kinases) of the same compound?
Its value is “more selective than Quizartinib”.

What about the “FLT-3 level in xenograft tumours (FIG. 7A/7B)” value [1] of the same compound?
The value was “decrease”.

What about the “pSTAT5 level in xenograft tumours (FIG. 7A/7B)” value [1] of the same compound?
Its value is “decrease”.

What about the “PK profile: exposure (FIG. 5)” value [2] of the same compound?
Its value is “demonstrating exposure in mice”.

What about the DC50 (FLT-3) of the same compound?
The DC50 was 5 nM.

— patent publication US10806737B2
